From PMC9981583

Sequences of proteins named here, by UniProt entry; tags and fusion partners are left off.
UniProt Q9P2H5: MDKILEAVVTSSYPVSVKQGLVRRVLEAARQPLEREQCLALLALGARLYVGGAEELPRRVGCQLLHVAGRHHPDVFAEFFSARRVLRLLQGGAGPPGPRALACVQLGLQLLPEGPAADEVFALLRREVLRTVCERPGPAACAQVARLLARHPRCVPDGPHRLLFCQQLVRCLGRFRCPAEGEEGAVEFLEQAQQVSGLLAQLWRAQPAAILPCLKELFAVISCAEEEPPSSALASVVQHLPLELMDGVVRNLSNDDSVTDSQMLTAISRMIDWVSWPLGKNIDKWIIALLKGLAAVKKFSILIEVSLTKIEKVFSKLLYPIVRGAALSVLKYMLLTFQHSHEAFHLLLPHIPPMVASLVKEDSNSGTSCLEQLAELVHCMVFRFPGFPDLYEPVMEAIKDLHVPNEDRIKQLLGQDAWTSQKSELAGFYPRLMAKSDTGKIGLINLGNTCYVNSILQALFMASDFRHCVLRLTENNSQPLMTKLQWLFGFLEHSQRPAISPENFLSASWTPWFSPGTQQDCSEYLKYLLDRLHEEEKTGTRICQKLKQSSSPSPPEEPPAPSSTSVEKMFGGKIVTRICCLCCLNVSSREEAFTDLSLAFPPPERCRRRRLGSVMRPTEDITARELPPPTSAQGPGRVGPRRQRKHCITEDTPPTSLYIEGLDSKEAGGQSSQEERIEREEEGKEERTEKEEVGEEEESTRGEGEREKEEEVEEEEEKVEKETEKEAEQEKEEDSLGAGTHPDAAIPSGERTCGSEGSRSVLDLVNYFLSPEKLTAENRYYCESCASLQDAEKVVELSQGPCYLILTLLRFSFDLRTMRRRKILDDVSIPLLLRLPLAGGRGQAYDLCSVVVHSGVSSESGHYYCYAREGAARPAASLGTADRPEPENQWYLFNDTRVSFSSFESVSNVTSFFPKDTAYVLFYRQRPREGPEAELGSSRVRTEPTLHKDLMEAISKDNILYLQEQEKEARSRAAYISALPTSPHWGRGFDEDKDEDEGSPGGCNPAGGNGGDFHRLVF
UniProt P17844: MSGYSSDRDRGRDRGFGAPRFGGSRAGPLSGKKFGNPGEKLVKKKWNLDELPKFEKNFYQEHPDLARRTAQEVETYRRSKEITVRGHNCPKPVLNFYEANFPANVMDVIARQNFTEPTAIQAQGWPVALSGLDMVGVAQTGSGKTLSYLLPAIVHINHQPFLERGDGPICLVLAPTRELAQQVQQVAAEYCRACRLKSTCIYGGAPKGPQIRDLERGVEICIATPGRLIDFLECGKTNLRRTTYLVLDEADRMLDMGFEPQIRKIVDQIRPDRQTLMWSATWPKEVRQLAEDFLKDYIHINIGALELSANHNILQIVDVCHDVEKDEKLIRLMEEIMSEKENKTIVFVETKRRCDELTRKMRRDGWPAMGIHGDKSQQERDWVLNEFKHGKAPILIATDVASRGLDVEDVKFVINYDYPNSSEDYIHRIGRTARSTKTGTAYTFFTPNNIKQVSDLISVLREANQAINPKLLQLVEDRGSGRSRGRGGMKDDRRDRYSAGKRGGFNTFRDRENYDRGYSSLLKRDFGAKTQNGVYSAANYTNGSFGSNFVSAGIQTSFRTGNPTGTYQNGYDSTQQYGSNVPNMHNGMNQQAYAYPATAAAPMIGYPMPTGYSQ
UniProt O14744: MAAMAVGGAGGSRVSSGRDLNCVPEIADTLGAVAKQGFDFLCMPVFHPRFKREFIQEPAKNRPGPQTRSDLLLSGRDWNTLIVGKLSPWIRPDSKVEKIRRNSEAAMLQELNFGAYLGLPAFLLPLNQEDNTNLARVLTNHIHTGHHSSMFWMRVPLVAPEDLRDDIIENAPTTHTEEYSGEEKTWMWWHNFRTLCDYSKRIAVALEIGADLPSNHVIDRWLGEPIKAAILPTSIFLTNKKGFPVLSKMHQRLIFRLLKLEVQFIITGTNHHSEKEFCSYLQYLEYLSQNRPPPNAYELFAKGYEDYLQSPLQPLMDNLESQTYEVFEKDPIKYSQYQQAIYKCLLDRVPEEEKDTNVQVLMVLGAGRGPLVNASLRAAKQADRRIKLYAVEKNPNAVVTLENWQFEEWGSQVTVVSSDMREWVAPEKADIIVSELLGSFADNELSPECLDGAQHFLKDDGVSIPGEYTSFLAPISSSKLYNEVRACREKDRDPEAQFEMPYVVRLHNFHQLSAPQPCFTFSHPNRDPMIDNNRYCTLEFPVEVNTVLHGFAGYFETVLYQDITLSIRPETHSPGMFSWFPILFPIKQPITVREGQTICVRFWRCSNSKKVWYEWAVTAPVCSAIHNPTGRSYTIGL
UniProt P12956: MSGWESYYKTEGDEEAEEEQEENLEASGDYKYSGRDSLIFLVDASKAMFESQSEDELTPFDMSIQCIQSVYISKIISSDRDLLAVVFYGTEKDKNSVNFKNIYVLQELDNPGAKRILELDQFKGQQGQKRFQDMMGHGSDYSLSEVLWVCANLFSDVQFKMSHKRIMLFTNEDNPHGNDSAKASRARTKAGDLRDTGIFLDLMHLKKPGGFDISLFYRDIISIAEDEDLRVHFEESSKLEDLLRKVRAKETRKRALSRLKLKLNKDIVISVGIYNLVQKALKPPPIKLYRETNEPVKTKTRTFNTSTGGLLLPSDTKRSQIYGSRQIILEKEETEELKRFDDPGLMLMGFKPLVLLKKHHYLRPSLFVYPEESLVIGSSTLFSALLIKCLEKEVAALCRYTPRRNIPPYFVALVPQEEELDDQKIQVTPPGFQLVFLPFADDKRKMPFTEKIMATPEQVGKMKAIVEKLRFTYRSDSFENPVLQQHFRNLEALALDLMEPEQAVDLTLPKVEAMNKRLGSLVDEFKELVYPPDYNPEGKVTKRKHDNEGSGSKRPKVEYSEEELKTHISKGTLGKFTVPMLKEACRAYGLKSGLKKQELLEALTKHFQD

B1: PPM1B (protein, UniProt O75688 1-479)
chain: MGAFLDKPKTEKHNAHGAGNGLRYGLSSMQGWRVEMEDAHTAVVGIPHGLEDWSFFAVYDGHAGSRVANYCSTHLLEHITTNEDFRAAGKSGSALELSVENVKNGIRTGFLKIDEYMRNFSDLRNGMDRSGSTAVGVMISPKHIYFINCGDSRAVLYRNGQVCFSTQDHKPCNPREKERIQNAGGSVMIQRVNGSLAVSRALGDYDYKCVDGKGPTEQLVSPEPEVYEILRAEEDEFIILACDGIWDVMSNEELCEYVKSRLEVSDDLENVCNWVVDTCLHKGSRDNMSIVLVCFSNAPKVSDEAVKKDSELDKHLESRVEEIMEKSGEEGMPDLAHVMRILSAENIPNLPPGGGLAGKRNVIEAVYSRLNPHRESDGASDEAEESGSQGKLVEALRQMRINHRGNYRQLLEEMLTSYRLAKVEGEESPAEPAATATSSNSDAGNPVTMQESHTESESGLAELDSSNEDAGTKMSGEKI
B2: endogenous α-L-fucosidase 1 (FUCA1) (enzyme, UniProt P04066 32-466)
chain: QPPRRYTPDWPSLDSRPLPAWFDEAKFGVFIHWGVFSVPAWGSEWFWWHWQGEGRPQYQRFMRDNYPPGFSYADFGPQFTARFFHPEEWADLFQAAGAKYVVLTTKHHEGFTNWPSPVSWNWNSKDVGPHRDLVGELGTALRKRNIRYGLYHSLLEWFHPLYLLDKKNGFKTQHFVSAKTMPELYDLVNSYKPDLIWSDGEWECPDTYWNSTNFLSWLYNDSPVKDEVVVNDRWGQNCSCHHGGYYNCEDKFKPQSLPDHKWEMCTSIDKFSWGYRRDMALSDVTEESEIISELVQTVSLGGNYLLNIGPTKDGLIVPIFQERLLAVGKWLSINGEAIYASKPWRVQWEKNTTSVWYTSKGSAVYAIFLHWPENGVLNLESPITTSTTKITMLGIQGDLKWSTDPDKGLFISLPQLPPSAVPAEFAWTIKLTGVK

The molecules below were run against Flag-tagged USP35 (ubiquitin-specific-processing protease 35) (human) (UniProt Q9P2H5) (assay: affinity purification with mass spectrometry; Flag-USP35 or empty vector transfected into HCT116; anti-Flag immunoprecipitation; SDS-PAGE, silver stain; band of interest cut for mass spectrometry).

binding, binds:
DDX5 (from UniProt P17844 1-614)
DNAJA1 (from UniProt P31689 1-397)
PRMT5 (from UniProt O14744 1-637)
XRCC6 (from UniProt P12956 1-609)
B1
B2

Results are given in words; binding and its absence hold for the method and conditions named. Binding seen in cells or lysates may run through a third protein. A yes stands for co-enrichment or nearness to the bait. Other partners may have been found.
